Source: PubChem BioAssay AID1053209 (Peter MacCallum Cancer Centre, 2014)
Aim: 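Gene losses that combine with doxorubicin to kill mouse bone cancer cells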 (follow-up of hits). Cells: mouse primary osteosarcoma cells. Knock-down reagent: single siRNA against mouse genes, 25 nM (text also states 40 nM). Duration: about 120 h (48 h before drug, then 72 h with drug). Treatment: doxorubicin 100 nM (about IC30-40), added 48 h after transfection, for 72 h. Measurement: 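ATP-based luminescent viability, with or without doxorubicin, relative to non-targeting control NT1, mean of two replicates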. Scale: viability with doxorubicin, vs NT1: higher = more viable cells under doxorubicin; viability without drug, vs NT1: higher = more viable cells without drug. Active means: 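Counted as active (class LC dox) if viability falls to 0.7 of NT1 or below under doxorubicin but stays within 0.7 to 1.1 without drug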.
The whole screen tested about 1,580 reagents; this is a part drawn at random. Over the whole deposit, 207 (13%) were called active. 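Rows are single siRNAs; four siRNAs per gene were tested, a gene counting as confirmed only when at least two agree.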 Reagents against one gene are numbered here. Not all columns of the deposit are shown.

With Psmc6 #1, what was measured?
combined effect class: low viability with and without drug; viability with doxorubicin, vs NT1: 0.2; viability without drug, vs NT1: 0.3; Call: inactive

How did the screen score Psmc6 #2?
combined effect class: low viability with and without drug; viability with doxorubicin, vs NT1: 0.25; viability without drug, vs NT1: 0.42; Call: inactive

With Psmc6 #3, what was measured?
combined effect class: high viability only with doxorubicin; viability with doxorubicin, vs NT1: 1.12; viability without drug, vs NT1: 1.04; Call: inactive

With Psmc6 #4, what does the deposit list?
combined effect class: low viability with and without drug; viability with doxorubicin, vs NT1: 0.15; viability without drug, vs NT1: 0.34; Call: inactive

What did the screen give for Prpf6 #1?
combined effect class: normal viability with and without drug; viability with doxorubicin, vs NT1: 0.9; viability without drug, vs NT1: 0.89; Call: inactive

For Prpf6 #2, what does the deposit list?
combined effect class: low viability only with doxorubicin; normal without drug; viability with doxorubicin, vs NT1: 0.6; viability without drug, vs NT1: 0.72; Call: active

What did the screen give for Prpf6 #3?
combined effect class: low viability only with doxorubicin; normal without drug; viability with doxorubicin, vs NT1: 0.68; viability without drug, vs NT1: 0.9; Call: active

What did the screen give for Prpf6 #4?
combined effect class: normal viability with and without drug; viability with doxorubicin, vs NT1: 0.82; viability without drug, vs NT1: 0.97; Call: inactive

What did the screen give for Ndufa5 #1?
combined effect class: normal viability with and without drug; viability with doxorubicin, vs NT1: 1.04; viability without drug, vs NT1: 0.98; Call: inactive

What did the screen give for Ndufa5 #2?
combined effect class: normal viability with and without drug; viability with doxorubicin, vs NT1: 0.9; viability without drug, vs NT1: 0.99; Call: inactive

What did the screen give for Ndufa5 #3?
combined effect class: normal viability with and without drug; viability with doxorubicin, vs NT1: 0.78; viability without drug, vs NT1: 0.91; Call: inactive

For Ndufa5 #4, what was measured?
combined effect class: normal viability with and without drug; viability with doxorubicin, vs NT1: 0.92; viability without drug, vs NT1: 0.94; Call: inactive

For Adarb1 #1, what does the deposit list?
combined effect class: normal viability with and without drug; viability with doxorubicin, vs NT1: 0.93; viability without drug, vs NT1: 1.03; Call: inactive

How did the screen score Adarb1 #2?
combined effect class: normal viability with and without drug; viability with doxorubicin, vs NT1: 0.97; viability without drug, vs NT1: 1.02; Call: inactive

With Adarb1 #3, how do the results read?
combined effect class: normal viability with and without drug; viability with doxorubicin, vs NT1: 0.78; viability without drug, vs NT1: 0.88; Call: inactive

For Adarb1 #4, how do the results read?
combined effect class: high viability only with doxorubicin; viability with doxorubicin, vs NT1: 1.13; viability without drug, vs NT1: 1.06; Call: inactive

Which result is listed for Uba1 #1?
combined effect class: normal viability with and without drug; viability with doxorubicin, vs NT1: 0.88; viability without drug, vs NT1: 0.9; Call: inactive

With Uba1 #2, how do the results read?
combined effect class: normal viability with and without drug; viability with doxorubicin, vs NT1: 0.8; viability without drug, vs NT1: 0.86; Call: inactive

With Uba1 #3, what was measured?
combined effect class: normal viability with and without drug; viability with doxorubicin, vs NT1: 1.02; viability without drug, vs NT1: 1.02; Call: inactive

For Uba1 #4, what was measured?
combined effect class: normal viability with and without drug; viability with doxorubicin, vs NT1: 1.03; viability without drug, vs NT1: 0.96; Call: inactive

With Bcl2a1d #1, how do the results read?
combined effect class: normal viability with and without drug; viability with doxorubicin, vs NT1: 0.92; viability without drug, vs NT1: 0.99; Call: inactive

For Bcl2a1d #2, what does the deposit list?
combined effect class: normal viability with and without drug; viability with doxorubicin, vs NT1: 0.99; viability without drug, vs NT1: 1.03; Call: inactive

How did the screen score Bcl2a1d #3?
combined effect class: normal viability with and without drug; viability with doxorubicin, vs NT1: 1.02; viability without drug, vs NT1: 0.99; Call: inactive

What is on record for Bcl2a1d #4?
combined effect class: normal viability with and without drug; viability with doxorubicin, vs NT1: 1.08; viability without drug, vs NT1: 0.96; Call: inactive

How did the screen score Afap1l1 #1?
combined effect class: high viability with and without drug; viability with doxorubicin, vs NT1: 1.12; viability without drug, vs NT1: 1.14; Call: inactive

How did the screen score Afap1l1 #2?
combined effect class: normal viability with and without drug; viability with doxorubicin, vs NT1: 1.08; viability without drug, vs NT1: 1.07; Call: inactive

With Afap1l1 #3, what does the deposit list?
combined effect class: normal viability with and without drug; viability with doxorubicin, vs NT1: 0.88; viability without drug, vs NT1: 0.88; Call: inactive

With Afap1l1 #4, how do the results read?
combined effect class: high viability only with doxorubicin; viability with doxorubicin, vs NT1: 1.1; viability without drug, vs NT1: 1; Call: inactive
